# Experimental data: PubChem BioAssay AID624046 (National Center for Advancing Translational Sciences (NCATS), 2012)
# The chains behind the UniProt entries cited, without tags or fusion partners.
# UniProt Q9Y463, whole entry, looked up: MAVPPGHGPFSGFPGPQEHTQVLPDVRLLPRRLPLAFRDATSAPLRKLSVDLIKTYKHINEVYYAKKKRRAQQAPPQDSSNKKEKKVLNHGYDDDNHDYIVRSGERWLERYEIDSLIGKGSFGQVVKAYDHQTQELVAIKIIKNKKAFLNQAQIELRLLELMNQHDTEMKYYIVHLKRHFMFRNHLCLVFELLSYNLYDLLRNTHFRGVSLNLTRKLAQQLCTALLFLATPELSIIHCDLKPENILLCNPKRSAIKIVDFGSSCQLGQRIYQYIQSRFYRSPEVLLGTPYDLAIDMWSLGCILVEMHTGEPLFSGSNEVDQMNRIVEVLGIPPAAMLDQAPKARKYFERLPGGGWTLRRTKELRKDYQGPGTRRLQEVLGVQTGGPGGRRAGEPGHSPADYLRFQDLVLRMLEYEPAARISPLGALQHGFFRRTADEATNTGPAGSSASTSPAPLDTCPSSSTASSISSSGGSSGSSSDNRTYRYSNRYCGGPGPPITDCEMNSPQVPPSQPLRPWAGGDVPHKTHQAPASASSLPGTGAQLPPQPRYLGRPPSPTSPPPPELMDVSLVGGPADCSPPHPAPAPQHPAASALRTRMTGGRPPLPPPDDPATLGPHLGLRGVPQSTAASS
# The source calls these results inconclusive, neither active nor inactive. Calls come from the whole dose curve; as a rule, active = well fitted inhibition curve with a large enough effect; inconclusive = small, poorly fitted or top-dose-only effect; inactive = flat fitted curve, though single readings scatter. Potencies beside an inconclusive call are fits to weak or partial responses and may not hold up.
# Molecular target: Dual specificity tyrosine-phosphorylation-regulated kinase 1B (Homo sapiens) (UniProt Q9Y463)
# Assay: Reaction Biology data for inhibitors of DYRK1B: Probe SAR
# Settings: Reaction Biology DYRK1B kinase assay, 10 uM ATP
# Description: Alternative splicing of pre-mRNAs plays a major role in the regulation of eukaryotic gene expression. Alternative splicing is now thought to be one of the primary reasons for the complexity of higher organisms leading to an average of three protein isoforms per gene. Aberrant splicing can lead to a number of diseases and is known to play a role in rare genetic diseases such as progeria syndrome. Hutchinson-Gilford Progeria Syndrome (HGPS) is a pediatric premature aging disease caused by a spontaneous mutation in the lamin A/C (LMNA) gene due to a single point mutation in the lamin A gene effecting 1 in 4 million people. To identify both specific splicing modulators of the lamin A gene as well as general splicing modulators, a cell-based HTS assay was developed using a minigene reporter system (AIDs, 1459 & 1487). […] This AID summarizes the characterization of lead compounds in Dyrk1b. NIH Molecular Libraries Probe Production Centers Network [MLPCN] NIH Chemical Genomics Center [NCGC] MLPCN Grant: MH084827 Assay Submitter (PI): Tom Misteli
# Compound IC50s were determined at Reaction Biology (http://www.reactionbiology.com) with ten concentration points starting at 10 uM in the assay using a 3-fold dilution series. The control compound staurosporine was also tested in the 10-dose IC50 mode with the same 3-fold serial dilution, again starting at 10 uM. […]
row,SMILES,Potency
1,Clc1ccc(CNc2ncncc2-c2ccc3c(c2)OCO3)cc1,inconclusive: 8.86 µM [inhibitor]
